Reference: patent publication US20250034239A1
Results are given in words; binding and its absence hold for the method and conditions named. Some results given as binding are weak or reduced against the parent protein; the word gives no strength. Tags and fused reporters may be left off the sequences shown.

Chains of the proteins cited; added tags and fusions are not shown. Residues count along the entry.
UniProt P27918, residues 28-469: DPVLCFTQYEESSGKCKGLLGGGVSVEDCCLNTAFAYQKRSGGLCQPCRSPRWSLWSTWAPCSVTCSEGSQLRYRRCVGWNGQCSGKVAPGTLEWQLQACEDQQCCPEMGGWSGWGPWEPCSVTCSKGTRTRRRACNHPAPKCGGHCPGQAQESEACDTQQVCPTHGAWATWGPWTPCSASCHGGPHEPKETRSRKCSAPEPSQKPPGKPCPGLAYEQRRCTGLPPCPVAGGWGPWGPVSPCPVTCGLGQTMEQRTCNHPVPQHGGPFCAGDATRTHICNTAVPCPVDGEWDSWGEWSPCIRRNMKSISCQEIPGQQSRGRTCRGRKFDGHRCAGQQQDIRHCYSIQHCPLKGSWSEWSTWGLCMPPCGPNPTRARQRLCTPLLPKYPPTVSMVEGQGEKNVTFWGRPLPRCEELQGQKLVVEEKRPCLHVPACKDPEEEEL
UniProt P11680, residues 23-464: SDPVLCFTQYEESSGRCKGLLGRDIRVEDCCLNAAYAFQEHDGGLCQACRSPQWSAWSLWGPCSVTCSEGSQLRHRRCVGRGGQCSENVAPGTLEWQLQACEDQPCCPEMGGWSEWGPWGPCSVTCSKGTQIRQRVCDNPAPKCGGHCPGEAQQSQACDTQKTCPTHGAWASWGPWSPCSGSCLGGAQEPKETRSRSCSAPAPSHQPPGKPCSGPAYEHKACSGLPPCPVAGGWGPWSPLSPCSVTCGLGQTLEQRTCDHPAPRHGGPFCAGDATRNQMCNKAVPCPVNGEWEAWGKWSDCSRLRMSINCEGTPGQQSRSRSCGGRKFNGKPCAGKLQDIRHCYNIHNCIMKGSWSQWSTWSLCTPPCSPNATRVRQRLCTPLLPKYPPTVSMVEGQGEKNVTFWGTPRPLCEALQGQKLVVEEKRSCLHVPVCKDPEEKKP

Experiments:
human properdin (human) = human properdin (human) (UniProt P27918); test: ELISA on human properdin
mouse properdin (mouse) = mouse properdin (mouse) (UniProt P11680); test: ELISA on mouse properdin

Binder	binding (human properdin (human))	binding (mouse properdin (mouse))
SLN7160 VHH-Fc (Fc fusion, not shown: a dimerising Fc or GST) HVQLVESGGGSVQSGGSLRLSCAASAYIYSSYCMGWFRQAPGKERERVSVINSDGRTSYADSVKGRFTISQDNAKNTLYLQMNSLKPEDTAMYYCAAVILPPTDGMEYSCNYPAAEYNYWGQGTQVTVSS	binds	binds
SLN12036 VHH-Fc (Fc fusion, not shown: a dimerising Fc or GST) HVQLVESGGGSVQAGGSLRLSCAHPEYTSSSYCMAWIRQAPGKEREGVAAIDTDGSTSYTDSVKGRFTISKDNAKNTLYLQMNNLKPEDTAMYYCAAAPWLLAYGDYCVTRPDFGEWGQGTQVTVSS	binds	binds
